Results are given in words; binding and its absence hold for the method and conditions named. In cells and extracts the contact can be indirect. These calls come from enrichment with a bait or labelling near it, and not all partners need be listed.
Biological target: HERC2 (human (endogenous in HeLa and HCT116)) (UniProt O95714)
Test: affinity purification with mass spectrometry

Sequences of proteins named here, by UniProt entry; tags and fusion partners are left off.
UniProt O95714: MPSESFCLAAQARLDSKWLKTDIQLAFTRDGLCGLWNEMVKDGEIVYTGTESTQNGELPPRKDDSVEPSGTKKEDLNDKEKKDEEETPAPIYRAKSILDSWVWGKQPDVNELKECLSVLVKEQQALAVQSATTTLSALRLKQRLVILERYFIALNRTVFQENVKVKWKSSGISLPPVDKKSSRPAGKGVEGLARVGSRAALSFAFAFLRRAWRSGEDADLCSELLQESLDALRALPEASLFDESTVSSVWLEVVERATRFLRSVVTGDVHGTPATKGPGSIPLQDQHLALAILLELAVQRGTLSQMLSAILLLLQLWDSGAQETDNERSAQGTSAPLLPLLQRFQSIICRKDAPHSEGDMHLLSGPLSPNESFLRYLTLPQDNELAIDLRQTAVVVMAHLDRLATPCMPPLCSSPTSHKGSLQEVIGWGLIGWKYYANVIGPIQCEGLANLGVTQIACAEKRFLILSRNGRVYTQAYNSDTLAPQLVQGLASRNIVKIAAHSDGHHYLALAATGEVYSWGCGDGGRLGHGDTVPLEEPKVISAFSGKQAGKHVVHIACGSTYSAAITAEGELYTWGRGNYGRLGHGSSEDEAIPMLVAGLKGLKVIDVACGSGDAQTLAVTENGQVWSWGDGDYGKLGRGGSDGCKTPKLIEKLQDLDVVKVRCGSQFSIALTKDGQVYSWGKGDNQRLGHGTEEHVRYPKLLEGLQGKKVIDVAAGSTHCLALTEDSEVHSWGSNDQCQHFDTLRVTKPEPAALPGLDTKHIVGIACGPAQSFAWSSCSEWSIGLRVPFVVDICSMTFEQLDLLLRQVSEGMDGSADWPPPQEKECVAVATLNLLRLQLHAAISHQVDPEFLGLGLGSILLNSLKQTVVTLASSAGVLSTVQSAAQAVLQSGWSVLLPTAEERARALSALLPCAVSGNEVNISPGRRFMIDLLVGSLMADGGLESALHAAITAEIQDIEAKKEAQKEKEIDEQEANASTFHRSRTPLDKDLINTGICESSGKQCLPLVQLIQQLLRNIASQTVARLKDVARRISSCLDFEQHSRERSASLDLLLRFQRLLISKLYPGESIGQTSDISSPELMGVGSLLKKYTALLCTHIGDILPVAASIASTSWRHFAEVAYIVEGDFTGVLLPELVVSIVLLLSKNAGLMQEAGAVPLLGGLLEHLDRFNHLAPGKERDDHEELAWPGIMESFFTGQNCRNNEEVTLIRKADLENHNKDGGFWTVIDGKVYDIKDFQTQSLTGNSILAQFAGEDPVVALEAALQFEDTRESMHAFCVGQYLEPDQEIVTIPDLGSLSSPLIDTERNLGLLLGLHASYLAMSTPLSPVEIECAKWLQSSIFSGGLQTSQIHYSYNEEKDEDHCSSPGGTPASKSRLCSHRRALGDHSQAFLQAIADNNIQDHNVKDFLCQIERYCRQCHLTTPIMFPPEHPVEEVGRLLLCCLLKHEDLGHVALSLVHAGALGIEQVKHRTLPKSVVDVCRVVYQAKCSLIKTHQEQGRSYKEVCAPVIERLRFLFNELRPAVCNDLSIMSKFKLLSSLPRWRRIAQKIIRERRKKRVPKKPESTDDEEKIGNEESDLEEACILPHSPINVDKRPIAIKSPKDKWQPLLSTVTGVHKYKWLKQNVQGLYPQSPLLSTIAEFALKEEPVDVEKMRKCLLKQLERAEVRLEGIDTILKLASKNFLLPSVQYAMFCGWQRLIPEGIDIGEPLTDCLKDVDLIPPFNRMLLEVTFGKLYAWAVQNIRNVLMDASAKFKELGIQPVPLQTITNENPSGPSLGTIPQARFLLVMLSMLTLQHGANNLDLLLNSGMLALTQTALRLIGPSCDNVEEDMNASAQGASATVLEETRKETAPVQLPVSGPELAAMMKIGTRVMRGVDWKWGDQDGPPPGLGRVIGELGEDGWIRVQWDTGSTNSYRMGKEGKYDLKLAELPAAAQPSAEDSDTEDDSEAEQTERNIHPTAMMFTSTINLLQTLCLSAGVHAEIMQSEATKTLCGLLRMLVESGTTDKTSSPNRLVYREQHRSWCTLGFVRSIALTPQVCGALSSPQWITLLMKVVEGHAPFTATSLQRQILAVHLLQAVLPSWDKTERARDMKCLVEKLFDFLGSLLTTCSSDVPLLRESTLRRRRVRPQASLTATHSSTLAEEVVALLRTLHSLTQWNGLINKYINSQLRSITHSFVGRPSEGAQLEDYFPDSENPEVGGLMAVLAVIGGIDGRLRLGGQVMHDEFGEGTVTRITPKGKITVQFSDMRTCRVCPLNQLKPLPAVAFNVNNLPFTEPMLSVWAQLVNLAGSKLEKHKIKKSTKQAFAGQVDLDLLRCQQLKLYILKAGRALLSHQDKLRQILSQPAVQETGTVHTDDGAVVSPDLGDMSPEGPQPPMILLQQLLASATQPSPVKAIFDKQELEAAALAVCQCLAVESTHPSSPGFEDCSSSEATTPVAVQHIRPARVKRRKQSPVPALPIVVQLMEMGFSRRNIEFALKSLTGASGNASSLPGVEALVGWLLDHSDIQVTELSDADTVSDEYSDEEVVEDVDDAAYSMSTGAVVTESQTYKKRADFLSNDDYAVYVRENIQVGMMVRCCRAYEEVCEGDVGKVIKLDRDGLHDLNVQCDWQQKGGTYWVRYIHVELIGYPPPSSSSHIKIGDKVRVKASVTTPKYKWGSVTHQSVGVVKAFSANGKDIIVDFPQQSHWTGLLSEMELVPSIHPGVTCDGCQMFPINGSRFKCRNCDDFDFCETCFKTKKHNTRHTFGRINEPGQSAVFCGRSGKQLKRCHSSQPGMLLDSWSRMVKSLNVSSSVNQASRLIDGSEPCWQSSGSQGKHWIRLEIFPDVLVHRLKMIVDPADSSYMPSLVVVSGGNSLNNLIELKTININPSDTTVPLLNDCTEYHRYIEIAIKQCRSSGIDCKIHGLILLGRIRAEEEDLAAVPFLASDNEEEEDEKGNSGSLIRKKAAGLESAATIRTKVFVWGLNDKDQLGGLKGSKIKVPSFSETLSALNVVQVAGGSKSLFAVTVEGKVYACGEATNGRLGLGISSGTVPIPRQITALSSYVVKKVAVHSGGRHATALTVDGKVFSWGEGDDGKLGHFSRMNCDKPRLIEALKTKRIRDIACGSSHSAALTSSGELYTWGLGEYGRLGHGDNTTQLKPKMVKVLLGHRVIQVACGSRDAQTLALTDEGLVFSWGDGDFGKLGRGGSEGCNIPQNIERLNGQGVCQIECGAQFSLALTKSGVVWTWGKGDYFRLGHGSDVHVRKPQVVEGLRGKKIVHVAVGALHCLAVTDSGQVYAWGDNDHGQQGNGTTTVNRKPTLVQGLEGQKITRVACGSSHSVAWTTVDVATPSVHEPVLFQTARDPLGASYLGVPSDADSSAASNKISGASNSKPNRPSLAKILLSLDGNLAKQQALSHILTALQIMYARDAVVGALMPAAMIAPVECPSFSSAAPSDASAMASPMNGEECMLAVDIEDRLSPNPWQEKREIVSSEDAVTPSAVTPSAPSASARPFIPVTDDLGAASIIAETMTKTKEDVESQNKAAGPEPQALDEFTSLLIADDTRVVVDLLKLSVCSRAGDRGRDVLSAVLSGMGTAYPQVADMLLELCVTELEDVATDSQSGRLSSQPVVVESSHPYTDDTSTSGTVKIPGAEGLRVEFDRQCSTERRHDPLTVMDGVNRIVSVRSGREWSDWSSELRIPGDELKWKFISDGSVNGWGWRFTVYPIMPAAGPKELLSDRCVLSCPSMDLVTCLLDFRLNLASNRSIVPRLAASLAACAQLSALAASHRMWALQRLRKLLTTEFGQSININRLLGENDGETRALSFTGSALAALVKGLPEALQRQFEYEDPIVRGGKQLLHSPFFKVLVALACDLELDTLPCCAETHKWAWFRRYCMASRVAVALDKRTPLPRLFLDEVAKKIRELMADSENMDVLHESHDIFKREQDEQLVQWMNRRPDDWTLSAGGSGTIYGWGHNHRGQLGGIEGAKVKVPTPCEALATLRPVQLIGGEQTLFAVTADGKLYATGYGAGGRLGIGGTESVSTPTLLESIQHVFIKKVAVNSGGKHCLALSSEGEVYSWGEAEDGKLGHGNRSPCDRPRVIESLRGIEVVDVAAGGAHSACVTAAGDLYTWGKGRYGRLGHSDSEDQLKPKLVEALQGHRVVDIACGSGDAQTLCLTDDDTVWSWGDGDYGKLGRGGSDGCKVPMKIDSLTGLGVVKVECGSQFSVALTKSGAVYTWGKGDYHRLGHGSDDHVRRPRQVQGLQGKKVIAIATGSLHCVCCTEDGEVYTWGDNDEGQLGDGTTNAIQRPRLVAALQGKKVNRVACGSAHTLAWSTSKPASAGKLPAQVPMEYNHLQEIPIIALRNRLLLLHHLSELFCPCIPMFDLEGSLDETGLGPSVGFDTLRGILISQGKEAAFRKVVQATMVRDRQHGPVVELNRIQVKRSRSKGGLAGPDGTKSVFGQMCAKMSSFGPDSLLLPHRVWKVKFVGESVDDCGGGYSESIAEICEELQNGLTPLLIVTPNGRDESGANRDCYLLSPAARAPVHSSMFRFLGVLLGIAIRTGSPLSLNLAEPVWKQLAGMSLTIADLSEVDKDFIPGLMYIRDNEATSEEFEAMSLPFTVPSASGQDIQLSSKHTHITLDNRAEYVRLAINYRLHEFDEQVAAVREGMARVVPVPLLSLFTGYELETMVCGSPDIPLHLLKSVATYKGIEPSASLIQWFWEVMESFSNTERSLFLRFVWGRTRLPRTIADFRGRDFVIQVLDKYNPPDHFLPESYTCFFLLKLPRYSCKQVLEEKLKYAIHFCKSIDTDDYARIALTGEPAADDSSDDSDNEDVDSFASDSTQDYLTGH
UniProt P27694: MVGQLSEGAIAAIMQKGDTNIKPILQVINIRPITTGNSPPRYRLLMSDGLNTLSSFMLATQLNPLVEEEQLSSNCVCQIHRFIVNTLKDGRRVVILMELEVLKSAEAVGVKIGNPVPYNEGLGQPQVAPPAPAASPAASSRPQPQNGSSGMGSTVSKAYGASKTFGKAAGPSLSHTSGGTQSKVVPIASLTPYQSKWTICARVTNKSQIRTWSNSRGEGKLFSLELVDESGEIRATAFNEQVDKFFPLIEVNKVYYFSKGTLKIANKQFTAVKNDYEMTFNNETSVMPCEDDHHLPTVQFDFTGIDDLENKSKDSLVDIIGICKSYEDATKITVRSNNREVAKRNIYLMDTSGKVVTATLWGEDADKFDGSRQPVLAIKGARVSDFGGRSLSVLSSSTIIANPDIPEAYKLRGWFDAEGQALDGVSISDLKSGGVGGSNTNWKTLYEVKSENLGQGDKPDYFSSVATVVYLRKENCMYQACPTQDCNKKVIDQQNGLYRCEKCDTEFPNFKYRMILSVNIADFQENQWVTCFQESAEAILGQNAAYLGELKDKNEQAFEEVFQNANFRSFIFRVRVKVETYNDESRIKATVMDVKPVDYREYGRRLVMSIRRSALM

Row | binding | Molecule
1 | binds | BLM (from UniProt P54132 1-1417)
2 | binds | RPA1 (from UniProt P27694 1-616)
3 | binds | RMI1 (protein, UniProt Q9H9A7 1-625) MNVTSIALRAETWLLAAWHVKVPPMWLEACINWIQEENNNVNLSQAQMNKQVFEQWLLTDLRDLEHPLLPDGILEIPKGELNGFYALQINSLVDVSQPAYSQIQKLRGKNTTNDLVTAEAQVTPKPWEAKPSRMLMLQLTDGIVQIQGMEYQPIPILHSDLPPGTKILIYGNISFRLGVLLLKPENVKVLGGEVDALLEEYAQEKVLARLIGEPDLVVSVIPNNSNENIPRVTDVLDPALGPSDEELLASLDENDELTANNDTSSERCFTTGSSSNTIPTRQSSFEPEFVISPRPKEEPSNLSIHVMDGELDDFSLEEALLLEETVQKEQMETKELQPLTFNRNADRSIERFSHNPNTTNNFSLTCKNGNNNWSEKNVSEQMTNEDKSFGCPSVRDQNRSIFSVHCNVPLAHDFTNKEKNLETDNKIKQTSSSDSHSLNNKILNREVVNYVQKRNSQISNENDCNLQSCSLRSSENSINLSIAMDLYSPPFVYLSVLMASKPKEVTTVKVKAFIVTLTGNLSSSGGIWSITAKVSDGTAYLDVDFVDEILTSLIGFSVPEMKQSKKDPLQYQKFLEGLQKCQRDLIDLCCLMTISFNPSLSKAMVLALQDVNMEHLENLKKRLNK
